Cell number after 72 h of treatment

Drug key:
AS-252424, 1 µM: O=C1NC(=O)/C(=C/c2ccc(-c3ccc(F)cc3O)o2)S1
indole-3-carbinol, 0.8 µM: OCc1c[nH]c2ccccc12
cisplatin, 1.6 µM: N.N.[Cl][Pt][Cl]
fingolimod, 2 µM: CCCCCCCCc1ccc(CCC(N)(CO)CO)cc1
KU-55933, 1 µM: O=c1cc(-c2cccc3c2Sc2ccccc2S3)oc(N2CCOCC2)c1
FH535, 1 µM: Cc1cc([N+](=O)[O-])ccc1NS(=O)(=O)c1cc(Cl)ccc1Cl
lestaurtinib, 0.004 µM: C[C@]12O[C@H](C[C@]1(O)CO)n1c3ccccc3c3c4c(c5c6ccccc6n2c5c31)CNC4=O
embelin, 1.2 µM: CCCCCCCCCCCC1=C(O)C(=O)C=C(O)C1=O
ruxolitinib, 1 µM: N#CC[C@H](C1CCCC1)n1cc(-c2ncnc3[nH]ccc23)cn1
BI-D1870, 0.2 µM: CC(C)CCN1c2nc(Nc3cc(F)c(O)c(F)c3)ncc2N(C)C(=O)C1C (centres unmarked)

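The test systems are human melanoma cell lines, treated with a pair of drugs for 72 h and then stained and imaged. Each value is the count of nuclei relative to DMSO-treated wells, in %, so that 100 equals the control. Every drug was used at one fixed concentration, the lower of two screened (a fifth of the higher). The file gives one value for each pair and line, without errors, so small differences may be noise.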 This is part of the screen, not chosen by result. An entry leaves out what has no value listed here. A dash means that no value is listed here.

Pair: KU-55933 + indole-3-carbinol
A101D: 99.3
A2058: 107
501mel: 96.9
C32: 92.1

Pair: fingolimod + embelin
A101D: 103
A2058: 98.5
501mel: 98.6
C32: 97.4

Pair: ruxolitinib + AS-252424
A101D: 118
A2058: 87.3
501mel: 77.5
C32: 95.1

Pair: fingolimod + KU-55933
A101D: 102
A2058: 89.6
C32: 96.0

Pair: KU-55933 + FH535
A101D: 83.9
A2058: 99.5
A375: 81.6
501mel: 87.0
C32: 95.1

Pair: KU-55933 + ruxolitinib
A101D: 107
A2058: 98.2
501mel: 83.0
C32: 116

Pair: cisplatin + AS-252424
A101D: 84.7
A2058: 96.2
501mel: 79.1
C32: 109

Pair: fingolimod + AS-252424
A101D: 88.3
A2058: 83.7
501mel: 57.2
C32: 95.4

Pair: fingolimod + BI-D1870
A101D: 62.8
A2058: 93.0
501mel: 43.9
C32: 97.5

Pair: lestaurtinib + AS-252424
A101D: 90.6
A2058: 111
501mel: 81.1
C32: 81.4

Pair: AS-252424 + indole-3-carbinol
A101D: 82.4
A2058: 108
501mel: 83.2
C32: 96.2

Pair: embelin + indole-3-carbinol
A101D: 105
A2058: 96.3
501mel: 104
C32: 98.8

Pair: BI-D1870 + embelin
A101D: 91.4
A2058: 107
A375: 114
501mel: 93.4
C32: 115

Pair: BI-D1870 + lestaurtinib
A101D: 77.1
A2058: 113
501mel: 83.4
C32: 95.4

Pair: BI-D1870 + ruxolitinib
A101D: 77.8
A2058: 85.3
501mel: 75.8
C32: 101

Pair: cisplatin + embelin
A101D: 94.2
A2058: 96.9
501mel: 87.4
C32: 98.7

Pair: ruxolitinib + embelin
A101D: 99.8
A2058: 93.5
501mel: 102
C32: 96.9

Pair: FH535 + indole-3-carbinol
A101D: 88.4
A2058: 92.0
501mel: 84.6
C32: 87.5

Pair: lestaurtinib + FH535
A101D: 83.0
A2058: 94.0
501mel: 103
C32: 111

Pair: indole-3-carbinol + BI-D1870
A101D: 101
A2058: 104
501mel: 85.0
C32: 77.0

Pair: BI-D1870 + cisplatin
A101D: 79.2
A2058: 83.6
501mel: 95.7
C32: 102

Pair: fingolimod + FH535
A101D: 65.6
A2058: 69.9
501mel: 46.4
C32: 104

Pair: AS-252424 + BI-D1870
A101D: 94.9
A2058: 102
A375: 96.8
501mel: 77.0
C32: 91.7

Pair: lestaurtinib + KU-55933
A101D: 101
A2058: 92.2
501mel: 82.2
C32: 92.0

Pair: FH535 + BI-D1870
A101D: 87.5
A2058: 85.1
A375: 89.4
501mel: 99.5
C32: 96.9

Pair: ruxolitinib + FH535
A101D: 91.5
A2058: 92.0
501mel: 78.4
C32: 108

Pair: KU-55933 + cisplatin
A101D: 116
A2058: 111
501mel: 88.9
C32: 99.3

Pair: lestaurtinib + embelin
A101D: 97.2
A2058: 95.9
501mel: 75.8
C32: 120

3 of the entries, repeated:

Pair	A101D	A2058	A375	501mel	C32
KU-55933 + ruxolitinib	107	98.2	-	83.0	116
cisplatin + embelin	94.2	96.9	-	87.4	98.7
fingolimod + FH535	65.6	69.9	-	46.4	104

From a melanoma drug combination screen (doi:10.1371/journal.pone.0140310); values rounded.